Experimental data from the supplement of paper PMC5407854, “Inhibitor of ppGalNAc-T3-mediated O-glycosylation blocks cancer cell invasiveness and lowers FGF23 levels” (eLife, 2017).
The other results are listed elsewhere or left out. Most values lie at the level of the controls, where differences are scatter.

Tested on: ppGalNAc-T3 sensor
Assay: T3 sensor activation Q score (MG/GFP ratio z-score vs DMSO controls) (SD units); higher = more sensor activation (inhibition of ppGalNAc-T3 glycosylation)
Details: HEK293 sensor cells; 10 µM; 6 h
Protocol: (§1)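 Cells were treated with compound at 10 uM for 6 h, then MG/GFP ratio was read by flow cytometry (10,000 cells per well, duplicate wells). Q = (R - R_neg)/SD_neg relative to DMSO vehicle controls; the signal rises when the glycosyltransferase is inhibited.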

Compound | T3 sensor activation Q score
O=C(O)CC1Sc2ccccc2NC1=O (stereo not given) | -0.025
COc1ccccc1NC1=CC(=O)CC(C)(C)C1 | -0.44
CCCc1nc(-c2ccc(-c3ccc(F)cc3)cc2)no1 | -0.795
Cc1cn(CC(=O)c2ccccc2)c2ccccc12 | -0.115
c1ccc(CN2CCN(Cc3cccnc3)CC2)cc1 | -0.37
Cc1ccccc1CN1CCCN(C)CC1 | -0.19
CCN(CC)CC#CC(O)c1ccccc1 (stereo not given) | -0.045
Nc1ccc(C2CC(=O)NC(=O)N2)cc1 (stereo not given) | 0.275
O=[N+]([O-])c1ccccc1/C=C/CN1CCN(c2ccccc2)CC1 | 0.58
Cc1ccc(S(=O)(=O)CC(N)=O)cc1 | -1.23
Cc1cc(C)cc(C(=O)c2ccccc2C(=O)O)c1 | 0.11
O=C(NCc1ccco1)c1ccc([N+](=O)[O-])cc1 | 0.305
CCCC(C)NC(=O)c1ccc(Cl)cc1[N+](=O)[O-] (stereo not given) | -0.3
O=C1N=C(c2ccccc2)C(c2ccccc2)N1 (stereo not given) | 0.02
Cc1ccc(N2C(=O)Cn3c2nc2c3c(=O)n(C)c(=O)n2C)cc1C | 0.31
O=C(COc1ccc(Cl)cc1Cl)Nc1cccc(Cl)c1Cl | -0.175
NC(=O)C(=O)Nc1nc(-c2ccccc2)cs1 | -1.34
O=C(Cn1ccnc1)c1ccc(Cl)cc1Cl | -1.13
O=[N+]([O-])c1ccc(CN2CCN(C/C=C/c3ccccc3)CC2)cc1 | 0.325
CCN(CC)S(=O)(=O)c1ccc(Cl)c(C(=O)O)c1 | -0.81

Compound | T3 sensor activation Q score
COc1cc2c(cc1OC)CN(Cc1cccs1)CC2 | 0.89
C/C(=C\c1ccccc1)CN(C)CCN(C)C | 0.635
CN(Cc1ccccc1)Cc1cccnc1 | 0.765
CC(=O)c1cc(F)c(N2CCN(C(=O)c3c(F)cccc3F)CC2)cc1C | -1.9
COc1ccc(C2C(C(C)=O)=C(O)C(=O)N2C)cc1 (stereo not given) | 0.315
CC(=Nc1ccccc1)Nc1ccccc1 | -0.58
COc1ccc2nccnc2c1[N+](=O)[O-] | 1.15
CC1CCN(S(=O)(=O)c2ccc(F)cc2)CC1 | -0.33
Cc1ccccc1NCC(=O)Nc1c(C)cccc1C | -0.335
Cc1cc(=O)n(-c2ccc(S(=O)(=O)O)cc2)[nH]1 | 0.8
COc1ccc(Cl)cc1NC(=O)c1cccc(C)c1 | -0.04
O=C(O)c1ccc(S(=O)(=O)c2ccccc2)cc1 | 0.65
COc1ccc(CN2CCSCC2)c(OC)c1OC | 0.615
NNC(=O)CNC(c1ccccc1)c1cc(Br)ccc1N (stereo not given) | 0.4
O=C(O)CNc1ccccc1C(=O)O | -1.5
O=C1NC(c2ccccc2)C(=C(O)c2ccccc2)C1=O (stereo not given) | -0.835
Cc1cccc(OCCCCN2CCCCC2)c1 | -0.445
Cc1ccc(S(=O)(=O)Nc2cccc3cccnc23)cc1 | -0.985
Brc1cnc2nc(COc3ccccc3)[nH]c2c1 | 1.6
Clc1ccccc1CN1CCc2ccccc2C1 | 0.115

Tested on: ppGalNAc-T2 sensor
Assay: T2 sensor activation Q score (MG/GFP ratio z-score vs DMSO controls) (SD units); higher = more sensor activation (inhibition of ppGalNAc-T2 glycosylation)
Details: HEK293 sensor cells; 10 µM; 6 h
Protocol: as §1

Compound | T2 sensor activation Q score
O=C(O)CC1Sc2ccccc2NC1=O (stereo not given) | -0.425
COc1ccccc1NC1=CC(=O)CC(C)(C)C1 | -0.255
CCCc1nc(-c2ccc(-c3ccc(F)cc3)cc2)no1 | -0.87
Cc1cn(CC(=O)c2ccccc2)c2ccccc12 | -0.435
c1ccc(CN2CCN(Cc3cccnc3)CC2)cc1 | 0.03
Cc1ccccc1CN1CCCN(C)CC1 | 0.635
CCN(CC)CC#CC(O)c1ccccc1 (stereo not given) | -1.54
Nc1ccc(C2CC(=O)NC(=O)N2)cc1 (stereo not given) | -0.22
O=[N+]([O-])c1ccccc1/C=C/CN1CCN(c2ccccc2)CC1 | -0.86
Cc1ccc(S(=O)(=O)CC(N)=O)cc1 | -1.64
Cc1cc(C)cc(C(=O)c2ccccc2C(=O)O)c1 | -0.56
O=C(NCc1ccco1)c1ccc([N+](=O)[O-])cc1 | 0.415
CCCC(C)NC(=O)c1ccc(Cl)cc1[N+](=O)[O-] (stereo not given) | -0.21
O=C1N=C(c2ccccc2)C(c2ccccc2)N1 (stereo not given) | 0.285
Cc1ccc(N2C(=O)Cn3c2nc2c3c(=O)n(C)c(=O)n2C)cc1C | 0.355
O=C(COc1ccc(Cl)cc1Cl)Nc1cccc(Cl)c1Cl | 0.67
NC(=O)C(=O)Nc1nc(-c2ccccc2)cs1 | -0.74
O=C(Cn1ccnc1)c1ccc(Cl)cc1Cl | -0.645
O=[N+]([O-])c1ccc(CN2CCN(C/C=C/c3ccccc3)CC2)cc1 | -0.34
CCN(CC)S(=O)(=O)c1ccc(Cl)c(C(=O)O)c1 | -0.835

Compound | T2 sensor activation Q score
COc1cc2c(cc1OC)CN(Cc1cccs1)CC2 | 0.5
C/C(=C\c1ccccc1)CN(C)CCN(C)C | 0.315
CN(Cc1ccccc1)Cc1cccnc1 | -0.505
CC(=O)c1cc(F)c(N2CCN(C(=O)c3c(F)cccc3F)CC2)cc1C | 0.25
COc1ccc(C2C(C(C)=O)=C(O)C(=O)N2C)cc1 (stereo not given) | -0.305
CC(=Nc1ccccc1)Nc1ccccc1 | -0.185
COc1ccc2nccnc2c1[N+](=O)[O-] | 0.115
CC1CCN(S(=O)(=O)c2ccc(F)cc2)CC1 | 0.755
Cc1ccccc1NCC(=O)Nc1c(C)cccc1C | 1.04
Cc1cc(=O)n(-c2ccc(S(=O)(=O)O)cc2)[nH]1 | -1.03
COc1ccc(Cl)cc1NC(=O)c1cccc(C)c1 | -0.685
O=C(O)c1ccc(S(=O)(=O)c2ccccc2)cc1 | -1.24
COc1ccc(CN2CCSCC2)c(OC)c1OC | 1.5
NNC(=O)CNC(c1ccccc1)c1cc(Br)ccc1N (stereo not given) | -1.02
O=C(O)CNc1ccccc1C(=O)O | 0.595
O=C1NC(c2ccccc2)C(=C(O)c2ccccc2)C1=O (stereo not given) | -0.175
Cc1cccc(OCCCCN2CCCCC2)c1 | -0.39
Cc1ccc(S(=O)(=O)Nc2cccc3cccnc23)cc1 | -1.14
Brc1cnc2nc(COc3ccccc3)[nH]c2c1 | 2.85
Clc1ccccc1CN1CCc2ccccc2C1 | -0.72
